Results as given in patent US11304930B2, “Ammonium salts of 3-(3,5-dibromo-4-hydroxybenzyliden)-5-indo-1,3-dihydroindol-2-one and uses thereof” (Metagone Biotech Inc., priority 2018, dated 2022).
Some of these results come from one statement about several compounds together. At least one structure is not confirmed: it was looked up by name or label, or the drawing left a doubt. Some ranges recur; such a range may be that of the whole group of compounds.

Tested on: SUN-1 cells
Experiment: MTS cell viability / proliferation assay
Assay type: cell-based
Details: for growth inhibition compared to the control: SUN-1 gastric cancer cells, 48 hrs
Method: Gastric cancer cell line SUN-1 was purchased from the American Type Culture Collection (ATCC; Manassas, Va., USA) and were maintained in Roswell Park Memorial Institute-1640 (RPMI-1640) supplemented with 1.5 g/L sodium bicarbonate, 10% fetal bovine serum (FBS), 1.0% antibiotic-antimycotic, L-glutamine (2.0×10^−3 M), and 1.0% nonessential amino acids.
MTS cell proliferation assay kit (Abcam, Cambridge, UK) was used to evaluate cell viability. Briefly, SNU-1 cells were seeded in each well of a 96-well plate at the density of 8,000 cells/well and incubated overnight at 37° C. Cells were then treated with a test drug for 48 or 72 h at 37° C. Then, 20 μl MTS/well was added and incubated for 3 h at 37° C. Cell viability was measured by absorbance at 490 nm in a microplate reader.
To validate the bioactivity of the ammonium salts of GW5074 of Example 1, their effects on cell proliferation with or without the addition of another cell proliferation inhibitor-sorafenib, were investigated using MTS cell proliferation assay kit in accordance with the manufacturer's protocols. Results are illustrated FIGS. 1A and 1B.

What does the source list for `O=C1Nc2ccc(I)cc2C1=Cc1cc(Br)c(O)c(Br)c1.OCCN(CCO)CCO` [MG-A3, Triethanolamine Salt of GW5075]?
growth inhibition (SUN-1 cells, 72 hrs, single agent): 40-60%; growth inhibition compared to the control (in combination with sorafenib): 55-60%; growth inhibition compared to the control (single agent, sorafenib 5 mM, GW5074 and salts 10 mM): 10-20%
